Read-outs that look alike come from different tables or passages of the source. Not every detail of the peptide structures is certain; ends, links or a residue may be inferred. Where a SMILES comes first, the peptide text is derived from it.
How the values were obtained:
[1] = system: HLA-B44^+ cell lines (EBV transformed B cells; B^- variant); experiment: 51Cr release assay of peptide-sensitized HLA-B44+ cell lines with CTL 159/5; type: cell-based, human; conditions: EBV transformed B cells and B^- variant incubated with peptide 30 minutes at 37° C., CTL 159/5, effector/target ratio 10:1
[2] = system: lymphoblastoid B cells LB33-EBV (HLA-B*4402 positive); experiment: 51Cr release assay of LB33-EBV cells incubated with varying concentration of peptide, CTL clones 340/1 and 346/8; type: cell-based, human; conditions: 51Cr release after four hours, read-out: half maximal lysis

CC[C@H](C)[C@H](NC(=O)[C@H](CC(C)C)NC(=O)[C@H](CCCCN)NC(=O)[C@H](CCC(=O)O)NC(=O)[C@@H](N)CCC(=O)O)C(=O)N[C@H](C(=O)N[C@H](C(=O)N[C@@H](CC(C)C)C(=O)N[C@@H](Cc1ccccc1)C(=O)O)C(C)C)C(C)C [SEQ ID NO: 2] (H-EEKLIVVLF-OH)
Half maximal lysis [1]: 100 to 200 ng/mL

CC[C@H](C)[C@H](NC(=O)[C@@H]1CCCN1C(=O)[C@H](CC(=O)O)NC(=O)[C@@H](NC(=O)[C@H](CCC(=O)O)NC(=O)[C@@H](N)CCSC)C(C)C)C(=O)NCC(=O)N[C@@H](Cc1c[nH]cn1)C(=O)N[C@@H](CC(C)C)C(=O)N[C@@H](Cc1ccc(O)cc1)C(=O)O [SEQ ID NO: 17]
EC50 ([2]; CTL 340/1, 10,000 CTL per 1000 target cells): ~40 nM | EC50 ([2]; CTL 346/8, 10,000 CTL per 1000 target cells): ~100 nM
